Measurements published in paper PMC9105235.
These are yes or no findings as the source states them, for the method shown. In cells and extracts the contact can be indirect. A yes stands for co-enrichment or nearness to the bait. Other partners may have been found.

Protein sequences, listed by entry. Tags and fused reporters are not part of them. Lines headed by an entry give the natural chain unless they say otherwise; changes in a name come on top.
UniProt Q96KE9: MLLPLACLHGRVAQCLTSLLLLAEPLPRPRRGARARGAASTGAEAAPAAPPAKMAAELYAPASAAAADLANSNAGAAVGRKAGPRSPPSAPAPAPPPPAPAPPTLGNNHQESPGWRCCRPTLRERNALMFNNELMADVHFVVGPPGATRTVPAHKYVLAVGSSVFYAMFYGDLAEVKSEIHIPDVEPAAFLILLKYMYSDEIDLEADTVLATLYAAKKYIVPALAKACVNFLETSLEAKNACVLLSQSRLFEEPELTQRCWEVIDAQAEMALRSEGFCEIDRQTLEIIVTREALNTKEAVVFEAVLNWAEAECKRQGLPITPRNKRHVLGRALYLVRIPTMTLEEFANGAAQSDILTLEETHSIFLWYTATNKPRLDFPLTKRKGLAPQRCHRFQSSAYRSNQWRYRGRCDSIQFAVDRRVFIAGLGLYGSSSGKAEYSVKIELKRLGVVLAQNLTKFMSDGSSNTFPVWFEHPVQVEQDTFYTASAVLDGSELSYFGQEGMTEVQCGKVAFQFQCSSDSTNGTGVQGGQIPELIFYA
UniProt Q9P203: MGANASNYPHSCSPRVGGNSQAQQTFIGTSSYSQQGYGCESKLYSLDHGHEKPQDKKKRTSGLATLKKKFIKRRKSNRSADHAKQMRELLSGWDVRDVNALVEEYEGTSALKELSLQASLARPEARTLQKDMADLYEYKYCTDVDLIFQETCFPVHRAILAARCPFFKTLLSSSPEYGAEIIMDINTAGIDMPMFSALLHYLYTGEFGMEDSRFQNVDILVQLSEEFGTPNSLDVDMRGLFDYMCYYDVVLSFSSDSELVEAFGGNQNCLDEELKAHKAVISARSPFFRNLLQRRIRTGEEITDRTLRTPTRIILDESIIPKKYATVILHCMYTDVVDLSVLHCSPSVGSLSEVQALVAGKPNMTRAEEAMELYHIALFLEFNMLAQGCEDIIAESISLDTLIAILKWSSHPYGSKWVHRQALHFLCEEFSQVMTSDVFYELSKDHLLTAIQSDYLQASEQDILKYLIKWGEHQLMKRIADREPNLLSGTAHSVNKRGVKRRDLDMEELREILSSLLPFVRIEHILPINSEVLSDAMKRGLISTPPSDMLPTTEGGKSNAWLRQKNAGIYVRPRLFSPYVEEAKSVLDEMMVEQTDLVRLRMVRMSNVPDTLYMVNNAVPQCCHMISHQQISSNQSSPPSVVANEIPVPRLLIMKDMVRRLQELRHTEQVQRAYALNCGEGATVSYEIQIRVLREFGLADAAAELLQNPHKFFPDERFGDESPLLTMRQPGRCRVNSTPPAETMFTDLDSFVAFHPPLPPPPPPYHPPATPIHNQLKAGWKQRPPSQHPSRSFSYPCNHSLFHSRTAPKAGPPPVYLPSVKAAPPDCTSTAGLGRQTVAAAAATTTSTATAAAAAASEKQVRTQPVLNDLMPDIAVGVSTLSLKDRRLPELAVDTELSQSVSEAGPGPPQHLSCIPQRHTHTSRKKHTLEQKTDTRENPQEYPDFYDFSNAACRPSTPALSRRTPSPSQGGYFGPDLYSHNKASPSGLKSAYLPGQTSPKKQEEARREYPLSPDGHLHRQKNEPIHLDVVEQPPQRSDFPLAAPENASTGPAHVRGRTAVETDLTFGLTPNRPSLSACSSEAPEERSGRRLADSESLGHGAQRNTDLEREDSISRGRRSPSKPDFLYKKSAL
UniProt Q86V97: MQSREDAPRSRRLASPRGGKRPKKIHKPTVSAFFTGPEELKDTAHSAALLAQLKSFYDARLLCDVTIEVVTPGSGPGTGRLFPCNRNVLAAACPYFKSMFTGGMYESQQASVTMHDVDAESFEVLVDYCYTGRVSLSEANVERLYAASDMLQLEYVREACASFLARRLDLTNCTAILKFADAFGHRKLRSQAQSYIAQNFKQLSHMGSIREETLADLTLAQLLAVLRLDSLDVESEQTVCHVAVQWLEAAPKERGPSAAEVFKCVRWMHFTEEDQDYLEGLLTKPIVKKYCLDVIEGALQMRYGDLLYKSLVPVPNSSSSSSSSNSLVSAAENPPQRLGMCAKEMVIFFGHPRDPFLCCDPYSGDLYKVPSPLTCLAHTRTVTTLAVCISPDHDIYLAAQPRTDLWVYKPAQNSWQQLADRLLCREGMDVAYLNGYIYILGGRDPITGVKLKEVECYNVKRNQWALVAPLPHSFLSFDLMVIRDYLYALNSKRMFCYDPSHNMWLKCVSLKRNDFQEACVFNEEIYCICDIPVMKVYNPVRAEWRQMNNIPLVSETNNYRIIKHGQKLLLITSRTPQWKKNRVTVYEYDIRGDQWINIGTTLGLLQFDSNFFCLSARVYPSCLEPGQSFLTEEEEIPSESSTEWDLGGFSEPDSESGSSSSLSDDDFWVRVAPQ
UniProt Q9Y597: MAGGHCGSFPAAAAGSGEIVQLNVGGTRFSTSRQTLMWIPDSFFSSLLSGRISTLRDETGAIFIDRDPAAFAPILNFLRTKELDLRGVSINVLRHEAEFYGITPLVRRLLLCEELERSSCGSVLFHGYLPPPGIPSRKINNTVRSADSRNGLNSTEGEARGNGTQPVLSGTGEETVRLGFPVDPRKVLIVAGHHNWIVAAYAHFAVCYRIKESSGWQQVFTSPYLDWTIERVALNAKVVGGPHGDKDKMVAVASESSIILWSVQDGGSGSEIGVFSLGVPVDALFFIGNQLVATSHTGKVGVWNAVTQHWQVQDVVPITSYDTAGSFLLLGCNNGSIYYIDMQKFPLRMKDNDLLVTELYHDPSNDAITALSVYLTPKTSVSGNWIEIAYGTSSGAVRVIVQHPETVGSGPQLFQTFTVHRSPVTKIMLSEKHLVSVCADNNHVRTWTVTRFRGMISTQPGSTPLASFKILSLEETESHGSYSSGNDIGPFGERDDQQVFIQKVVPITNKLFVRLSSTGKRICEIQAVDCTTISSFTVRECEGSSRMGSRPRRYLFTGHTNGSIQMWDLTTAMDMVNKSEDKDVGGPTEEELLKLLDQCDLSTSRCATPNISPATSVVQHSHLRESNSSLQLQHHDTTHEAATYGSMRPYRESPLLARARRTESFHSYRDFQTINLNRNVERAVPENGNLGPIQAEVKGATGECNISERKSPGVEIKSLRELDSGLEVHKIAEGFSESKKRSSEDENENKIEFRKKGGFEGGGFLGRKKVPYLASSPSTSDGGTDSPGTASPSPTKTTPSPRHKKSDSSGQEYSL
UniProt Q6PI47: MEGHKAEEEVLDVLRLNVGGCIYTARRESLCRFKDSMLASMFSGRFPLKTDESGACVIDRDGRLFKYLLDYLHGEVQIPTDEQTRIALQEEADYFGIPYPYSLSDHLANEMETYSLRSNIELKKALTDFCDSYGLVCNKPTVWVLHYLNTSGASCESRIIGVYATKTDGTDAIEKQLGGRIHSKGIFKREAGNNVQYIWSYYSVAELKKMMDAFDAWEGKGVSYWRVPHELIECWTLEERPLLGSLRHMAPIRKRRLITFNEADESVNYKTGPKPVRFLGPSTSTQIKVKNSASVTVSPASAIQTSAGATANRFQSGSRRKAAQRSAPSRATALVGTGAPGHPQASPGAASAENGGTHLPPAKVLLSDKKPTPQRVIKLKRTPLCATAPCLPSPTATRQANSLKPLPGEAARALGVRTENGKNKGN
UniProt O95365: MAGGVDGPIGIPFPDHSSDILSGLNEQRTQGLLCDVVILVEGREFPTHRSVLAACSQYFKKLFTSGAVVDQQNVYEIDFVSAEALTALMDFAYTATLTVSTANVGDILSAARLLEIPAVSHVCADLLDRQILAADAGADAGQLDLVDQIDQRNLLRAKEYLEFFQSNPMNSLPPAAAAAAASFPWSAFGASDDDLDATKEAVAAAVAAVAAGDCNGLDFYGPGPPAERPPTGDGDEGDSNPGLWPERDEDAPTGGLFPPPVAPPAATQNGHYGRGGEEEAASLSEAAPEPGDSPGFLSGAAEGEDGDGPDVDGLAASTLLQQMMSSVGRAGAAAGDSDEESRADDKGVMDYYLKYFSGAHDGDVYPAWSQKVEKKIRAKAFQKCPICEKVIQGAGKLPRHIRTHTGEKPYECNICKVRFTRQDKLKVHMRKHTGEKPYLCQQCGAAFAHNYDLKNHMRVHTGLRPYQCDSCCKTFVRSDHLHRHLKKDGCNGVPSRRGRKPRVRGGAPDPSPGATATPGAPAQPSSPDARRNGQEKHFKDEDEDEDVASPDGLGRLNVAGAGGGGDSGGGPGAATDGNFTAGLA
UniProt Q5XKL5: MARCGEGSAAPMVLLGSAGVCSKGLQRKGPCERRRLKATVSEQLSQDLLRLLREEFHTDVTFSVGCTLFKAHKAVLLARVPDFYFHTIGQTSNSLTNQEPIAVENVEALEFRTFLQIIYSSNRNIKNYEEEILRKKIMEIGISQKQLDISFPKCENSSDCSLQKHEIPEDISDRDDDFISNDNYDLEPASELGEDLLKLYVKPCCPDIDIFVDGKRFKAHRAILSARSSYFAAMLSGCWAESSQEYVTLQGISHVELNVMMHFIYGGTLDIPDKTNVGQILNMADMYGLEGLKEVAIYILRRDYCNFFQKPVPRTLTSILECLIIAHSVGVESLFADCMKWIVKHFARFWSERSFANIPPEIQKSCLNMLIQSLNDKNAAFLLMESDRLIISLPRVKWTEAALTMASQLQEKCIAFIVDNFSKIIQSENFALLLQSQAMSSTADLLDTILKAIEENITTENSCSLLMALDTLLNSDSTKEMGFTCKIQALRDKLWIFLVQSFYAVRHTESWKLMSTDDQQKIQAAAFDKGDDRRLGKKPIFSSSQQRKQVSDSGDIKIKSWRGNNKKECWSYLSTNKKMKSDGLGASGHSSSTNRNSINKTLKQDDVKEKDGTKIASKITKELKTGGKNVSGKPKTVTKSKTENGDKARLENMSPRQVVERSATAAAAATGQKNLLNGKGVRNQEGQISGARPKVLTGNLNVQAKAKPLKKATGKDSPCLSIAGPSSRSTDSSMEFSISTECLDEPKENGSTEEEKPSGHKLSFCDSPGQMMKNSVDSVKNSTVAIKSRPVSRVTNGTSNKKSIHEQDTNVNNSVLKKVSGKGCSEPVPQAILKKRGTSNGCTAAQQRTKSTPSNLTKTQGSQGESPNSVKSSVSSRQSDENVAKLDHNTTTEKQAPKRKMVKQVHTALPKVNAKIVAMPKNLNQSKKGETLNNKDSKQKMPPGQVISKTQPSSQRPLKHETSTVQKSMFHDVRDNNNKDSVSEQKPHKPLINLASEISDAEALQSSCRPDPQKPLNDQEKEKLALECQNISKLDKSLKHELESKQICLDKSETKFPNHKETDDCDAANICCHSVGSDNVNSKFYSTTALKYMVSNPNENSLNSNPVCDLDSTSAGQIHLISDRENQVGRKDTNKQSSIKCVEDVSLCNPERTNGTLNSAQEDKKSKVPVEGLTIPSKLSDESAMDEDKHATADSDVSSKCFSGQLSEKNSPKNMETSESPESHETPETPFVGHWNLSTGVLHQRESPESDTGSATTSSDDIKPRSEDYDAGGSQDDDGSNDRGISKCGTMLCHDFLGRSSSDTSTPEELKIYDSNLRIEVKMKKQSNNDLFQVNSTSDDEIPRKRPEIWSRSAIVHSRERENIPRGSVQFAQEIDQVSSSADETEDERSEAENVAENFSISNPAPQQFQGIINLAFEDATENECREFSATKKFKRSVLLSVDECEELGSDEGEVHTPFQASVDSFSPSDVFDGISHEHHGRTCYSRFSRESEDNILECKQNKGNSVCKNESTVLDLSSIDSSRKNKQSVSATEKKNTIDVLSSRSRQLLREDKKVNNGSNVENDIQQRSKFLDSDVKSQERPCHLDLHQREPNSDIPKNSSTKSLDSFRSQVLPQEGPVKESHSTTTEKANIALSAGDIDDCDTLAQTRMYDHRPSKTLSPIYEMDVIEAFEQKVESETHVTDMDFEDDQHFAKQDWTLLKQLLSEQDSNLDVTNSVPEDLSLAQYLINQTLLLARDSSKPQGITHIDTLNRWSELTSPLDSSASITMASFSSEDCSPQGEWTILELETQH
UniProt O95199: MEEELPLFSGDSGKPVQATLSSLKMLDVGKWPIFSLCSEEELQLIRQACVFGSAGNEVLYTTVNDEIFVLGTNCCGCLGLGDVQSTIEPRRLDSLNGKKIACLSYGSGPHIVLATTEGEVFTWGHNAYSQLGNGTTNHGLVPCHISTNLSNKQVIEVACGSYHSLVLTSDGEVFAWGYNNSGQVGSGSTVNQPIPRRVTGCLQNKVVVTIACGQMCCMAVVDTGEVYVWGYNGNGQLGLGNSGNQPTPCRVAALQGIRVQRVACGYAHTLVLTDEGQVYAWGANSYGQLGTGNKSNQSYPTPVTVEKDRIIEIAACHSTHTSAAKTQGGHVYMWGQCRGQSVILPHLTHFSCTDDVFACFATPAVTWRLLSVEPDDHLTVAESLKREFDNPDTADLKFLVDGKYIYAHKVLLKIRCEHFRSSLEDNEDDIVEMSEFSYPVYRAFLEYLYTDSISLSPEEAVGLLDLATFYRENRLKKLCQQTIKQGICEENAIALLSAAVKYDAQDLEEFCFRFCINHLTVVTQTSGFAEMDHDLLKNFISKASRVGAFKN

What was measured:
[1] = target: PrC-CUL3-∆9 (human) (UniProt Q13618); test: affinity purification with mass spectrometry; PrC-CUL3-WT or PrC-CUL3-∆9 precipitated with HPC4-sepharose overnight at 4 °C from lysates of tetracycline-induced Flp-In T-REx 293 cells (50 mM HEPES pH 7.5, 150 mM NaCl, 0.5% Nonidet P-40, 2 mM CaCl2); label-free LC-MS/MS, two independent experiments, empty vector as control
[2] = target: PrC-CUL3-WT (human) (UniProt Q13618); test: as above

Substance | binding [1] | binding [2]
BTBD11 (from UniProt A6QL63 1-1104) | binds | binds
KLHL17 (from UniProt Q6TDP4 1-642) | binds | binds
BTBD6 (from UniProt Q96KE9) | binds | binds
KLHL7 (from UniProt Q8IXQ5 1-586) | binds | binds
BTBD10 (from UniProt Q9BSF8 1-475) | binds | binds
BTBD7 (from UniProt Q9P203 1-1132) | binds | binds
KBTBD2 (from UniProt Q8IY47 1-623) | binds | binds
KBTBD6 (from UniProt Q86V97 1-674) | binds | binds
KCTD3 (from UniProt Q9Y597 1-815) | binds | binds
KCTD18 (from UniProt Q6PI47 1-426) | binds | binds
ZBTB7A (from UniProt O95365 1-584) | binds | binds
KCTD20 (from UniProt Q7Z5Y7 1-419) | binds | binds
BACH2 (from UniProt Q9BYV9 1-841) | binds | binds
BTBD8 (from UniProt Q5XKL5 1-1792) | binds | binds
RCBTB2 (from UniProt O95199 1-551) | binds | binds
